From publication PMC12040169 (PLOS Biology, 2025)
The other results are listed elsewhere or left out.

These compounds were tested on T1, CTL2-GFP (C. trachomatis L2/434/Bu, GFP-expressing). Conditions: bulk GFP, single well; 28.5 h, 10 µM; inhibitor.
T1 construct: L2/434/Bu, GFP-expressing
Design: species or system HeLa; Intracellular C. trachomatis growth in HeLa cells, bulk GFP fluorescence relative to DMSO
With `COc1ccc(S(=O)(=O)N2CCN(C(=O)c3cc(-c4ccncc4)nc4ccc(Br)cc34)CC2)cc1` [CBK267750] the “% of control remaining” value was 87.7814%.
With `Cc1noc(C)c1CN1CCC(c2ccccc2)C1` (stereo not drawn) [CBK304451] the “% of control remaining” value was 120.213%.
In the case of `COc1ccnc(Sc2ccc(Cl)cc2)c1C#N` [CBK018571], the “% of control remaining” value is reported as 95.5954%.
`Cc1nc(CCNC(=O)N(Cc2ccsc2)C2CC2)nc2c1CCCC2` [CBK307674] was tested, and the “% of control remaining” value was 119.065%.
For `O=[N+]([O-])c1ccc2c(c1)C(O)n1nc(-c3ccncc3)nc1S2` (stereo not drawn) [CBK288533], the “% of control remaining” value was 117.303%.
In the case of `CN(CC(=O)N(C)CC(F)(F)F)Cc1cccnc1` [CBK282075], the “% of control remaining” value is reported as 106.61%.
In the case of `CC(C)c1ccc(OCC(=O)NCc2ccccn2)c(Br)c1` [CBK265910], the “% of control remaining” value is reported as 100%.
In the case of `CN1CCN(CCC(=O)N/N=C/c2ccc3c(c2)OCO3)CC1` [CBK261498], the “% of control remaining” value is reported as 100%.
`O=C(CCc1cccc(F)c1)Nc1cnc(-c2ccc(F)cc2)c(-c2ccoc2)n1` [CBK037077] was tested, and the “% of control remaining” value was 138.52%.
With `NC(=O)c1ccc(C#Cc2ccccc2)o1` [CBK009809] the “% of control remaining” value was 102.682%.
With `Cc1nn(C)c(C)c1C1CCCN1CC(=O)NCc1ccccn1` (stereo not drawn) [CBK305501] the “% of control remaining” value was 136.129%.
In the case of `Oc1cccc(-c2nccnc2NCc2ccc(Cl)cc2)c1` [CBK037650], the “% of control remaining” value is reported as 131.595%.
With `Cc1cnc2n(c1=O)C(CC(=O)NCc1ccncc1)CS2` (stereo not drawn) [CBK287671] the “% of control remaining” value was 107.922%.
In the case of `CCC(C(=O)N1CCC(O)(c2ccccn2)CC1)c1ccccc1` (stereo not drawn) [CBK283768], the “% of control remaining” value is reported as 88.9%.
`O=C(NC[C@H]1C[C@@H]2CC[N@]1C[C@@H]2CN1CCN(c2ccccn2)CC1)Nc1ccsc1` [CBK289113] was tested, and the “% of control remaining” value was 135.166%.
For `O=C(COc1ccc(F)cc1)Nc1ccc2ncccc2c1` [CBK159816], the “% of control remaining” value was 131.68%.
`O=C(CSc1nnc(-c2ccccc2F)n1-c1ccccc1)Nc1ccc2cn[nH]c2c1` [CBK267591] was tested, and the “% of control remaining” value was 115.79%.
With `COC(=O)c1sccc1N1C(=O)CSCC1=O` [CBK021934] the “% of control remaining” value was 158.102%.
With `Cc1ccc(C(=O)CCC(=O)CCC(=O)O)cc1` [CBK265546] the “% of control remaining” value was 119.338%.
With `COc1ccc(C(=O)NC(Nc2ccccc2)C(Cl)(Cl)Cl)cc1OC` (stereo not drawn) [CBK263680] the “% of control remaining” value was 70.2108%.
In the case of `Cc1ccc(C(=O)CC(C(=O)O)c2cn(CCC#N)c3ccccc23)cc1` (stereo not drawn) [CBK287194], the “% of control remaining” value is reported as 128.627%.
With `COCCN1C(=O)C2(CC(=O)N(CCCCC(C)C)C2=O)c2cc(OC)ccc21` (stereo not drawn) [CBK075145] the “% of control remaining” value was 114.851%.
For `O=C(CSCc1ccccc1Cl)Nc1ccc(-c2nnc(-c3ccccc3)o2)cc1` [CBK268656], the “% of control remaining” value was 103.355%.
In the case of `Cc1nn(Cc2ccccc2)c(C)c1NC(=O)CSc1nc2c(c(C(F)(F)F)n1)CCc1ccccc1-2` [CBK266112], the “% of control remaining” value is reported as 196.34%.
For `O=C(c1cccc(F)c1)N1CCC(c2nnc3n2CCCCC3)CC1` [CBK284627], the “% of control remaining” value was 134.778%.
With `CSc1nc2sc3c(c2c(=O)n1-c1ccccc1C)CC(C)(C)OC3` [CBK091875] the “% of control remaining” value was 104.115%.
In the case of `Cc1ccc(OCCCN2CCN(C)CC2)c(Cc2ccccc2)c1` [CBK269650C], the “% of control remaining” value is reported as 109.878%.
In the case of `CCn1cc(CN(Cc2ccccc2)CC2CCCO2)c(C)n1` (stereo not drawn) [CBK283265], the “% of control remaining” value is reported as 120.764%.
With `COc1ccc(C2(NC(=O)c3cnn(C)c3C)CCCCC2)cc1` [CBK283731] the “% of control remaining” value was 124.43%.
For `O=C(NCc1ccccc1Cl)N(Cc1cccc(Cl)c1)CC1CCNCC1` [CBK049762], the “% of control remaining” value was 79.1991%.
In the case of `O=C(Nc1nc2c(s1)CCc1ccccc1-2)C1CC1` [CBK287330], the “% of control remaining” value is reported as 144.519%.
`O=C(N[C@@H]1COCC[C@@H]1OCC1CC1)c1cccc2c1NCCC2` [CBK307227] was tested, and the “% of control remaining” value was 104.575%.
In the case of `CC12CCC(=O)N1CCCN2Cc1cnn(-c2ccc(F)cc2)c1` (stereo not drawn) [CBK281819], the “% of control remaining” value is reported as 129.006%.
`CCCNC(=O)Cc1sccc1NS(=O)(=O)c1ccc(C)cc1` [CBK038118] was tested, and the “% of control remaining” value was 127.231%.
With `OC1(c2cccnc2)CCCN(Cc2ccccc2F)CC1` (stereo not drawn) [CBK283009] the “% of control remaining” value was 122.929%.
With `CC1(C(=O)O)CCC(C(=O)Nc2ccc(F)cc2)C1(C)C` (stereo not drawn) [CBK286953] the “% of control remaining” value was 112.079%.
For `CC(C)(C)OC(=O)NCC1CCC(C(=O)O)CC1` (stereo not drawn) [CBK278598], the “% of control remaining” value was 125.907%.
`CN(c1ccccc1)S(=O)(=O)c1ccc(C(=O)NCc2cccnc2)cc1` [CBK297522] was tested, and the “% of control remaining” value was 126.734%.
With `CCC(=O)N1CCC(c2cc(C(F)(F)F)n3nc(C)cc3n2)CC1` [CBK284367] the “% of control remaining” value was 105.558%.
With `COc1cccc2ncn(CCCn3cccn3)c(=O)c12` [CBK307094] the “% of control remaining” value was 119.735%.
With `CN1CCN(c2cncc(-c3ccccc3CO)n2)CC1` [CBK065302] the “% of control remaining” value was 169.232%.
In the case of `COc1ccc(-n2c(S)nnc2-c2cc(C(C)(C)C)n[nH]2)cc1` [CBK269071], the “% of control remaining” value is reported as 147.672%.
For `O=C(Cc1ccsc1)N1CCCC1c1nc2ccccc2[nH]1` (stereo not drawn) [CBK283740], the “% of control remaining” value was 128.205%.
In the case of `CC(=O)Nc1ccc(N2CC34C=CC(O3)C(C(=O)O)C4C2=O)cc1` (stereo not drawn) [CBK287020], the “% of control remaining” value is reported as 119.455%.
`O=C1CC(C(=O)O)SC(NNC(=O)c2ccccc2)=N1` (stereo not drawn) [CBK267944] was tested, and the “% of control remaining” value was 138.97%.
For `CCN(CC)CCn1c(-c2ccccc2)c(OCCO)c2ccccc2c1=O` [CBK010078], the “% of control remaining” value was 106.853%.
In the case of `COc1ccc2[nH]cc(C3CCN(C(=O)c4cc(C#N)c[nH]4)CC3)c2c1` [CBK305479], the “% of control remaining” value is reported as 115.04%.
For `CC(=O)N1CCC2(C/C=C/C[C@H]3CN(CC(N)=O)CC[C@H]3NC(=O)CNC2=O)CC1` [CBK292148], the “% of control remaining” value was 101.247%.
For `CN1CCN(Cc2nc3c(c(=O)n(C)c(=O)n3C)n2Cc2c(F)cccc2Cl)CC1` [CBK269179], the “% of control remaining” value was 179.445%.
With `CCc1nc2ccc(C(=O)NCCCN3CCCC3=O)cn2c1N(C)Cc1cccs1` [CBK145536] the “% of control remaining” value was 149.262%.
With `O=c1[nH]c(=O)n(Cc2cccnc2)c2nc[nH]c12` [CBK291260] the “% of control remaining” value was 111.029%.
